Measured values taken from paper PMC9834402.

Tests used:
[1] = molecular target: TuMV VPg fused to the YFP N-terminal moiety (p101-YFN, BiFC) (turnip mosaic virus, isolate YC5); assay: split reporter; BiFC with split YFP in agroinfiltrated N. benthamiana leaves; TuMV proteins with the YFP N-terminal moiety, host proteins with the YFP C-terminal moiety; confocal microscopy after 48 h
[2] = molecular target: TuMV CI fused to the YFP N-terminal moiety (p101-YFN, BiFC) (turnip mosaic virus, isolate YC5); assay: as above

Row | Binder | binding [1] | binding [2]
1 | eukaryotic translation initiation factor eIF(iso)4E fused to the YFP C-terminal moiety (p101-YFC, BiFC) (protein, UniProt O04663 1-198) MATDDVNEPLPAAAELPATEAEKQPHKLERKWSFWFDNQSKKGAAWGASLRKAYTFDTVEDFWGLHETIFQTSKLTANAEIHLFKAGVEPKWEDPECANGGKWTWVVTANRKEALDKGWLETLMALIGEQFDEADEICGVVASVRPQSKQDKLSLWTRTKSNEAVLMGIGKKWKEILDVTDKITFNNHDDSRRSRFTV | binds | 
2 | METHYL-CPG-BINDING DOMAIN PROTEIN 5 (MBD5) fused to the YFP C-terminal moiety (p101-YFC, BiFC) (protein, UniProt Q9SNC0 1-182) MSNGTDQAQPPPENPATPVDSKSRKRATPGDDNWLPPDWRTEIRVRTSGTKAGTVDKFYYEPITGRKFRSKNEVLYYLEHGTPKKKSVKTAENGDSHSEHSEGRGSARRQTKSNKKVTEPPPKPLNFDFLNVPEKVTWTGINGSEEAWLPFIGDYKIQESVSQDWDRVFTLVTSQNAGKTMF | binds | binds

No constants are given. Whether binding was seen depends on the method and setting. Binding seen in cells or lysates may run through a third protein. A result given as binding can be weak or reduced; the word gives no strength. Where a sequence is shown, tags or fusion partners need not be part of it.
